# Laboratory results: PubChem BioAssay AID1487 (National Center for Advancing Translational Sciences (NCATS), 2009)
# The list shows a part of the results. These are further read-outs of the screen, such as a control signal, another cell line or another target. No call is given for them. The list favours compounds with an active or inconclusive main result. Potencies come from curve fits of mixed quality, noted in brackets.
# Assay: qHTS Assay for Modulators of Lamin A Splicing
# Conditions: HeLa LMNA splicing GFP/RFP minigene ratio, 48 h
# In short: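 S3 HeLa cells stably expressing lamin A-EGFP splicing minigene plus DsRed2, 600 cells/well, 48 h compound exposure at 37C. Laser-scanning cytometry; analysed as GFP (500-530 nm)/RFP (575-640 nm) total intensity ratio; 0.5% DMSO vehicle.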
# [1] = measured here: RFP viability control channel
# [2] = measured here: GFP splicing reporter channel
smiles,measurement,setting,value
CCCN(CCC)C(=S)NC(=O)c1ccc(-c2ccccc2)cc1,AC50,[1],"25.1 µM [rising, single point]"
NS(=O)(=O)c1ccc2ccccc2c1,AC50,[2],"5.62 µM [falling, single point]"
same,AC50,[1],"6.31 µM [falling, single point]"
COc1cc(C(=O)N/N=C/c2ccsc2C)cc(OC)c1OC,AC50,[2],"1.12 µM [falling, full curve]"
same,AC50,[1],"1 µM [falling, full curve]"
CCn1nc(C)c(CCN(C)C(=O)Nc2cc(OC)c(OC)c(OC)c2)c1C,AC50,[2],"35.5 µM [rising, single point]"
O=C(COCc1cc(-c2cccs2)on1)N1CCN(c2cccc(Cl)c2)CC1,AC50,[2],"4.47 µM [falling, single point]"
COC(=O)c1ccc(NC(=O)c2ccc(N(C)S(C)(=O)=O)cc2)cc1,AC50,[2],"2.51 µM [rising, full curve, poor fit]"
same,AC50,[1],"10 µM [rising, partial curve]"
Nc1ccc(-c2nc3ccc(N)cc3[nH]2)cc1,AC50,[2],"0.0794 µM [rising, partial curve, poor fit]"
O=C(COc1ccccc1C(=O)Nc1ccccc1)c1ccc(Br)cc1,AC50,[1],"6.31 µM [rising, single point]"
Cc1cccc(C(=O)N2CCC(=O)N(C(COCc3cccc(Cl)c3)Cc3ccccc3)CC2)c1 (stereo unspecified),AC50,[2],"14.1 µM [rising, partial curve]"
same,AC50,[1],"22.4 µM [rising, partial curve]"
CN(CCCNC(=O)CCCOc1cc(=O)n(C)c2ccccc12)Cc1ccccc1,AC50,[2],"11.2 µM [falling, partial curve, poor fit]"
Cc1cccc2cc(C#N)c(NCCCn3ccnc3)nc12,AC50,[2],"14.1 µM [rising, partial curve, poor fit]"
same,AC50,[1],"12.6 µM [rising, single point]"
COc1cc(C(=S)NC2CCCCC2)ccc1O,AC50,[2],"35.5 µM [rising, single point]"
same,AC50,[1],"31.6 µM [rising, single point]"
CCCCS(=O)(=O)/C=C\C=C/S(=O)(=O)CCCC,AC50,[2],"35.5 µM [falling, single point]"
same,AC50,[1],"28.2 µM [falling, single point]"
CSc1nnc(-c2ccc([N+](=O)[O-])cc2)o1,AC50,[2],"0.112 µM [falling, full curve, poor fit]"
Cc1ccccc1-n1c(SCC(=O)c2c(N)n(C)c(=O)n(C)c2=O)nnc1-c1cccnc1,AC50,[2],"15.8 µM [rising, single point]"
same,AC50,[1],"35.5 µM [rising, single point]"
N#CCCN(C(=O)Nc1ccc(Cl)c(Cl)c1)c1ccccc1,AC50,[1],"31.6 µM [rising, single point]"
CCOc1ccc(-n2cc(-c3ccccc3)c3c(N4CCN(c5ccccc5OC)CC4)ncnc32)cc1,AC50,[1],"1 µM [falling, partial curve, poor fit]"
Cc1ccccc1S(=O)(=O)NC1OC(=O)C(Cl)=C1Cl (stereo unspecified),AC50,[1],"4.47 µM [falling, full curve]"
COc1ccc(CCNCC(O)Cn2c3ccccc3c3ccccc32)cc1OC (stereo unspecified),AC50,[2],"2.82 µM [falling, single point]"
same,AC50,[1],"3.98 µM [falling, single point]"
Cc1nn(CC(=O)c2ccccc2)c(=O)c2nn(-c3ccccc3F)c(C)c12,AC50,[2],"8.91 µM [rising, partial curve, poor fit]"
c1ccc(CC2CCN(C(c3cccs3)c3nnnn3C3CCCC3)CC2)cc1 (stereo unspecified),AC50,[2],"11.2 µM [rising, single point]"
same,AC50,[1],"15.8 µM [rising, single point]"
CN(C)C(C)(C)C#CCC(c1ccccc1)c1ccccc1,AC50,[1],"15.8 µM [rising, single point]"
COc1ccc(N2CCN(CC(=O)Nc3sccc3C#N)CC2)cc1,AC50,[1],"35.5 µM [rising, single point]"
CCn1c2ccccc2c2cc(NC(=O)CSc3nnc(-c4ccc(OC)cc4)n3N)ccc21,AC50,[2],"28.2 µM [falling, single point]"
same,AC50,[1],"35.5 µM [falling, single point]"
O=C1CC2c3ccccc3C1C1C(=O)N(CCO)C(=O)C21 (stereo unspecified),AC50,[2],"4.47 µM [falling, single point]"
same,AC50,[1],"6.31 µM [falling, single point]"
CN(CC(=O)Nc1ccc(S(=O)(=O)N2CCCC2)cc1)Cc1ccc(Cl)cc1,AC50,[2],"14.1 µM [rising, single point]"
same,AC50,[1],"12.6 µM [rising, single point]"
CCOC(=O)c1sc(NC(=O)c2cccc(S(=O)(=O)N3c4ccccc4CC3C)c2)cc1C (stereo unspecified),AC50,[1],"3.55 µM [rising, single point]"
O=C(c1ccc(F)cc1)C1CCN(Cc2cn[nH]c2-c2ccccc2)CC1,AC50,[1],"25.1 µM [falling, single point]"
COC(=O)C1=C(C)N(Cc2ccccc2)C(=O)N[C@H]1c1cccc(F)c1,AC50,[1],"0.282 µM [falling, partial curve]"
COc1ccc(-c2oc3ncn(CCN4CCOCC4)c(=N)c3c2-c2ccc(OC)cc2)cc1,AC50,[1],"14.1 µM [rising, partial curve]"
Cc1cccc(NC(=O)Cn2cc(C(=O)c3ccco3)c3ccccc32)c1,AC50,[2],"15.8 µM [rising, single point]"
same,AC50,[1],"20 µM [rising, partial curve]"
CN(C)/C=C(\C#N)C(=O)Nc1ccccc1,AC50,[2],"5.62 µM [rising, single point]"
Cc1cccc(N2CCN(C(=O)N3CCCCC3)CC2)c1C,AC50,[2],"5.62 µM [falling, single point]"
same,AC50,[1],"5.62 µM [falling, partial curve, poor fit]"
Cc1ccc(C(=O)CSc2nnc(-c3ccco3)n2C)cc1,AC50,[2],"0.0631 µM [rising, full curve]"
CCOC(=O)CCNC(=O)N1CCCC(C(=O)c2ccccc2SC)C1 (stereo unspecified),AC50,[1],"1.12 µM [falling, full curve, poor fit]"
COCc1nn2c(N)c(C#N)cnc2c1-c1ccccc1,AC50,[1],"15.8 µM [rising, partial curve]"

# Given tab-delimited: entries from further up.
smiles	measurement	setting	value
COc1cc(C(=O)N/N=C/c2ccsc2C)cc(OC)c1OC	AC50	[1]	1 µM [falling, full curve]
CCn1nc(C)c(CCN(C)C(=O)Nc2cc(OC)c(OC)c(OC)c2)c1C	AC50	[2]	35.5 µM [rising, single point]
O=C(COCc1cc(-c2cccs2)on1)N1CCN(c2cccc(Cl)c2)CC1	AC50	[2]	4.47 µM [falling, single point]
